In patent US9445596B2, “Small molecule compounds for the control of nematodes” (California Institute of Technology, priority 2011, dated 2016):

Tested on: daf-22(m130) worms
Test: Ascaroside feeding experiment with daf-22(m130)
Format: in vivo, C. elegans
Conditions: 5 μM per culture; incubated for 5 days; LC-MS

Row | Compound | conversion into indole ascarosides by daf-22(m130) worms
1 | CC1O[C@@H](O[C@H](C)CCCC/C=C/C(=O)O)[C@@H](O)C[C@H]1O (some centres unmarked) [ascr#3] | convert added ascr#3 into icas#3
2 | CC1O[C@@H](O[C@H](C)CCCCCCC(=O)O)C(O)C[C@H]1O (some centres unmarked) [ascr#10] | preferred over conversion of (ω)-ascaroside oscr#10
